Data reported in publication PMC11585589.
No constants are given. Whether binding was seen depends on the method and setting. In cells and extracts the contact can be indirect. Tags and fused reporters may be left off the sequences shown.

By UniProt entry, the sequences of proteins in these tests, tags left out.
UniProt Q9UBF8: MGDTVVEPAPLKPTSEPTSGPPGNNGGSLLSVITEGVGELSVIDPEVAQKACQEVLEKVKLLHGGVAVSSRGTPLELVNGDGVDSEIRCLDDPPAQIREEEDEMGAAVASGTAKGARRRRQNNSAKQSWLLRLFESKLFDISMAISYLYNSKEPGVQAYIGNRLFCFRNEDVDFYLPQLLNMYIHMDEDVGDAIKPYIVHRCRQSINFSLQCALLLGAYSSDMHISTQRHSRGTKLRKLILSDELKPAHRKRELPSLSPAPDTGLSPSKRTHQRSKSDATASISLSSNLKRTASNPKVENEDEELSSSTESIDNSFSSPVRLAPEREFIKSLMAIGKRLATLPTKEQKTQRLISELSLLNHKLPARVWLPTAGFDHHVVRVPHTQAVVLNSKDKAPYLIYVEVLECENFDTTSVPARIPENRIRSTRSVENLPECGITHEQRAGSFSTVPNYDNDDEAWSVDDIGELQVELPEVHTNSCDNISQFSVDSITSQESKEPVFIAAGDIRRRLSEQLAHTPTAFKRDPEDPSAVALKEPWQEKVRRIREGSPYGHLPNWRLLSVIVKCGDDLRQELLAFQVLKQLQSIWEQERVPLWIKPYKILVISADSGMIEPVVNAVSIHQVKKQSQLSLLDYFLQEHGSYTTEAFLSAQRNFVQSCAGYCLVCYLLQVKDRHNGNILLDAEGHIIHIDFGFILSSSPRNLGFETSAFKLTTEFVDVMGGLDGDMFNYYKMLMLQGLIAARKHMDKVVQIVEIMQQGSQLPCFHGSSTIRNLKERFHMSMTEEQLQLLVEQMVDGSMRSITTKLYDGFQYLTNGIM

Tests used:
[1] = target: T1, GST-Δ13-ARL5A T30N (human) (UniProt Q9Y689); test: pull-down; GST-Δ13ARL5 variants on glutathione-Sepharose beads; detergent extracts of HeLa stably co-expressing GFP-PI4KB and HA-ARMH3; 4 °C overnight; blot for GFP; only the target purified
T1 sequence: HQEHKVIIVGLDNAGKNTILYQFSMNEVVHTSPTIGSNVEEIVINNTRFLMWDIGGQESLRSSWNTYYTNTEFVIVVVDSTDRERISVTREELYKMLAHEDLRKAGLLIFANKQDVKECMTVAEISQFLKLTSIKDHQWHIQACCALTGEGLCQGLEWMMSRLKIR

[2] = target: T2, GST-Δ13-ARL5B T30N (human) (UniProt Q96KC2); test: as above
T2 sequence: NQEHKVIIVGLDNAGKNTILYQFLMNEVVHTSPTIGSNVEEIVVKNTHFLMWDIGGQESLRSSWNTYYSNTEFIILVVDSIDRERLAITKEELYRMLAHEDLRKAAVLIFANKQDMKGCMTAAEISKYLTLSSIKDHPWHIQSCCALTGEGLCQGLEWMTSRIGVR

binding [1]: no binding
binding [2]: no binding
Substance: GFP-PI4KB (from UniProt Q9UBF8 1-816) (enzyme)
